# Melanoma cell counts after drug treatment

Source: doi:10.1371/journal.pone.0140310, primary screening data, rounded.

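Human melanoma cell lines in 1,536-well plates were treated with a pair of drugs for 72 h, then fixed, stained and imaged. Values are the number of DAPI-stained nuclei as a percentage of the DMSO control: 100 is no effect, lower means fewer cells. Concentrations were fixed for each drug; these are the lower of two levels, a fifth of the higher. No replicate spread is given; individual values may be noisy.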 This is part of the screen, not chosen by result. An entry leaves out what has no value listed here. A dash means that no value is listed here.

Drug key:
vatalanib (2 µM): Clc1ccc(Nc2nnc(Cc3ccncc3)c3ccccc23)cc1
etoposide (0.02 µM): COc1cc([C@@H]2c3cc4c(cc3[C@@H](O[C@@H]3O[C@@H]5CO[C@@H](C)O[C@H]5[C@H](O)[C@H]3O)[C@H]3COC(=O)[C@H]23)OCO4)cc(OC)c1O
decitabine (0.1 µM): Nc1ncn([C@H]2C[C@H](O)[C@@H](CO)O2)c(=O)n1
NVP-BEZ235 (0.004 µM): Cn1c(=O)n(-c2ccc(C(C)(C)C#N)cc2)c2c3cc(-c4cnc5ccccc5c4)ccc3ncc21
VX-702 (0.4 µM): NC(=O)c1ccc(N(C(N)=O)c2c(F)cccc2F)nc1-c1ccc(F)cc1F
bortezomib (0.001 µM): CC(C)C[C@H](NC(=O)[C@H](Cc1ccccc1)NC(=O)c1cnccn1)B(O)O
nutlin-3 (0.1 µM): COc1ccc(C2=N[C@@H](c3ccc(Cl)cc3)[C@@H](c3ccc(Cl)cc3)N2C(=O)N2CCNC(=O)C2)c(OC(C)C)c1
FH535 (1 µM): Cc1cc([N+](=O)[O-])ccc1NS(=O)(=O)c1cc(Cl)ccc1Cl
everolimus (0.02 µM): CO[C@H]1C[C@@H]2CC[C@@H](C)[C@@](O)(O2)C(=O)C(=O)N2CCCC[C@H]2C(=O)O[C@H]([C@H](C)C[C@@H]2CC[C@@H](OCCO)[C@H](OC)C2)CC(=O)[C@H](C)/C=C(\C)[C@@H](O)[C@@H](OC)C(=O)[C@H](C)C[C@H](C)/C=C/C=C/C=C/1C
STA-4783 (0.006 µM): CN(NC(=O)CC(=O)NN(C)C(=S)c1ccccc1)C(=S)c1ccccc1

| Combination | COLO 800 | C32 | IST-MEL1 | LB2518-MEL | LOX IMVI | A375 | 501mel | A101D |
|---|---|---|---|---|---|---|---|---|
| everolimus and etoposide | 60.7 | 87.3 | 83.8 | 73.5 | 67.1 | 57.3 | - | 74.2 |
| nutlin-3 and NVP-BEZ235 | 129 | 90.0 | 87.2 | 104 | 86.2 | 96.1 | - | 90.3 |
| decitabine and bortezomib | 101 | 84.5 | 62.0 | 30.8 | 60.4 | 93.1 | - | 17.0 |
| etoposide and nutlin-3 | 46.6 | 88.9 | 105 | 112 | 104 | 124 | - | 93.7 |
| FH535 and nutlin-3 | 65.0 | 98.6 | 97.1 | 96.1 | 90.6 | - | 73.9 | 82.8 |
| bortezomib and FH535 | 86.2 | 75.6 | 77.1 | 45.6 | 93.9 | - | 35.9 | 37.6 |
| everolimus and FH535 | 58.1 | 79.0 | 75.9 | 62.2 | 106 | - | 60.5 | 60.6 |
| VX-702 and FH535 | 171 | 104 | 85.1 | 110 | 111 | - | 84.4 | 90.4 |
| STA-4783 and FH535 | 41.6 | 58.5 | 77.8 | 80.2 | 77.0 | 22.6 | 24.8 | 68.3 |
| nutlin-3 and vatalanib | 97.7 | 96.3 | 101 | 87.4 | 68.9 | 97.7 | - | 83.3 |
| bortezomib and etoposide | 109 | 79.7 | 98.7 | 46.3 | 76.7 | 90.0 | - | 30.9 |
| nutlin-3 and decitabine | 69.2 | 89.9 | 84.8 | 74.3 | 96.9 | 102 | - | 90.9 |
| everolimus and vatalanib | 44.4 | 84.1 | 73.8 | 68.2 | 85.8 | 50.5 | - | 75.4 |
| STA-4783 and decitabine | 72.3 | 117 | 86.6 | 86.5 | 91.2 | 102 | - | 89.2 |
| everolimus and nutlin-3 | 51.3 | 88.7 | 73.7 | 72.1 | 47.1 | 56.7 | - | 82.0 |
| STA-4783 and nutlin-3 | 76.7 | 67.3 | 69.2 | 46.0 | 44.5 | 21.8 | - | 85.6 |
| vatalanib and FH535 | 80.9 | 101 | 84.7 | 88.8 | 78.9 | - | 93.2 | 86.8 |
| STA-4783 and NVP-BEZ235 | 59.1 | 80.0 | 82.6 | - | 66.8 | 40.7 | - | 77.0 |
| bortezomib and everolimus | 60.6 | 93.9 | 60.6 | 41.0 | 38.9 | 46.9 | - | 17.0 |
| vatalanib and VX-702 | 84.9 | 106 | 95.6 | 107 | 115 | 90.2 | - | 109 |
| NVP-BEZ235 and vatalanib | 127 | 98.2 | 94.9 | 94.5 | 74.5 | 73.1 | - | 66.3 |
| VX-702 and NVP-BEZ235 | 171 | 97.9 | 92.4 | 103 | 108 | 105 | - | 98.8 |
| STA-4783 and vatalanib | 114 | 125 | 101 | 93.1 | 112 | 91.7 | - | 90.0 |
| VX-702 and bortezomib | 84.9 | 111 | 95.8 | 69.2 | 148 | 114 | - | 52.3 |
| everolimus and decitabine | 51.0 | 113 | 77.0 | 79.5 | 97.1 | 61.3 | - | 92.7 |
| vatalanib and decitabine | 91.0 | 89.1 | 81.9 | 102 | 79.0 | 90.4 | - | 76.9 |
| NVP-BEZ235 and etoposide | 77.5 | 97.9 | 93.4 | 116 | 91.6 | 89.8 | - | 91.3 |
| etoposide and decitabine | 69.6 | 105 | 83.6 | 95.3 | 55.0 | 83.0 | - | 87.7 |
| decitabine and VX-702 | 49.8 | 105 | 83.9 | 84.5 | 100 | 116 | - | 97.6 |
| VX-702 and etoposide | 95.5 | 105 | 102 | 102 | 116 | 85.5 | - | 110 |
| everolimus and STA-4783 | 62.0 | 67.0 | 68.2 | 59.6 | 80.4 | 36.3 | - | 74.0 |
| everolimus and VX-702 | 101 | 83.6 | 79.8 | - | 88.7 | 50.2 | - | 88.9 |
| etoposide and vatalanib | 109 | 95.3 | 105 | 104 | 101 | 96.6 | - | 105 |
| vatalanib and bortezomib | 106 | 81.1 | 86.7 | - | 58.2 | 89.7 | - | 10.6 |
| FH535 and NVP-BEZ235 | 144 | 71.8 | 92.8 | 106 | 116 | - | 89.2 | 77.4 |
| bortezomib and NVP-BEZ235 | 123 | 100 | 86.2 | 48.7 | 48.4 | 87.0 | - | 44.9 |
| NVP-BEZ235 and decitabine | 76.1 | 101 | 86.5 | 84.7 | 73.5 | 73.1 | - | 89.4 |

Once more, the final 4:

* vatalanib and bortezomib | COLO 800: 106; C32: 81.1; IST-MEL1: 86.7; LOX IMVI: 58.2; A375: 89.7; A101D: 10.6
* FH535 and NVP-BEZ235 | COLO 800: 144; C32: 71.8; IST-MEL1: 92.8; LB2518-MEL: 106; LOX IMVI: 116; 501mel: 89.2; A101D: 77.4
* bortezomib and NVP-BEZ235 | COLO 800: 123; C32: 100; IST-MEL1: 86.2; LB2518-MEL: 48.7; LOX IMVI: 48.4; A375: 87.0; A101D: 44.9
* NVP-BEZ235 and decitabine | COLO 800: 76.1; C32: 101; IST-MEL1: 86.5; LB2518-MEL: 84.7; LOX IMVI: 73.5; A375: 73.1; A101D: 89.4